Measurements published in the supplement of paper PMC10849652.
The other results are listed elsewhere or left out.

Amino acid sequences for entries named in this document (tags omitted). A change or cut given only in a name is not applied to a line headed by its entry.
UniProt Q8N1A6: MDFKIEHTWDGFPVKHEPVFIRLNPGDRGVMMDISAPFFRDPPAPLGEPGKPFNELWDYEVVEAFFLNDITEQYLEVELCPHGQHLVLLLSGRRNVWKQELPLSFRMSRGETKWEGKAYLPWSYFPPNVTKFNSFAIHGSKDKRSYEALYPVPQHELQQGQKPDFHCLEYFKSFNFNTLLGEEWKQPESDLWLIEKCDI
UniProt Q9Y2V0: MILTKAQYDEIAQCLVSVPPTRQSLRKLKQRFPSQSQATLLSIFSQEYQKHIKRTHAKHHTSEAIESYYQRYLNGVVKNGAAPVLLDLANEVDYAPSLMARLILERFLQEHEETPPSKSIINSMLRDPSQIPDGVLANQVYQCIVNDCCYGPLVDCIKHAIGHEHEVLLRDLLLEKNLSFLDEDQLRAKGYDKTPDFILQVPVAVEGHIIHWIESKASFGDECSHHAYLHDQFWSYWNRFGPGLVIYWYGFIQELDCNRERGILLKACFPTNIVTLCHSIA
UniProt Q6P1X6: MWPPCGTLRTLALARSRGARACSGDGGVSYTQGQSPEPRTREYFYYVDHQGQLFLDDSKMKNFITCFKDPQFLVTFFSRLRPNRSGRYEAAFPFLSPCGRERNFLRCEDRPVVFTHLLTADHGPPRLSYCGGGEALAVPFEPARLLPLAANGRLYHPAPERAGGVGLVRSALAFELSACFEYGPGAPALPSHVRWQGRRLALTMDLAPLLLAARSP
UniProt Q6ZSJ8: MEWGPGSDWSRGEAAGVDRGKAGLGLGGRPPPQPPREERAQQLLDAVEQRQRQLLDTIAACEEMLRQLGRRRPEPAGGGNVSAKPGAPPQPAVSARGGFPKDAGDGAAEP
UniProt Q9BVC5: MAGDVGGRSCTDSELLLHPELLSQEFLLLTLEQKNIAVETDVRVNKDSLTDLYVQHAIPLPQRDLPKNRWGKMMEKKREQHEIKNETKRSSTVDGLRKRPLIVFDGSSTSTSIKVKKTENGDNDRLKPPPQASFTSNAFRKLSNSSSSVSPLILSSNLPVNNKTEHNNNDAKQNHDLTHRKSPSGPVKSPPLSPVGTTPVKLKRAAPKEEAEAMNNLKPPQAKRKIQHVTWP
UniProt Q8N999, whole entry, looked up: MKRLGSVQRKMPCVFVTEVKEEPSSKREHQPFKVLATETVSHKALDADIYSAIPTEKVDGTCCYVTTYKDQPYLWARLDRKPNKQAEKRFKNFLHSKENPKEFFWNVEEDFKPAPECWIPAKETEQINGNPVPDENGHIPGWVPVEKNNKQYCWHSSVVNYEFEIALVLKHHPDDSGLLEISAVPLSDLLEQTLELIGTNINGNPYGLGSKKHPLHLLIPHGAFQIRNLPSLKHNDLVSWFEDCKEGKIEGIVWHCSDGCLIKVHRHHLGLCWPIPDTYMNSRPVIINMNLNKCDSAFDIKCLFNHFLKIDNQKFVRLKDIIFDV
UniProt P47756, whole entry, looked up: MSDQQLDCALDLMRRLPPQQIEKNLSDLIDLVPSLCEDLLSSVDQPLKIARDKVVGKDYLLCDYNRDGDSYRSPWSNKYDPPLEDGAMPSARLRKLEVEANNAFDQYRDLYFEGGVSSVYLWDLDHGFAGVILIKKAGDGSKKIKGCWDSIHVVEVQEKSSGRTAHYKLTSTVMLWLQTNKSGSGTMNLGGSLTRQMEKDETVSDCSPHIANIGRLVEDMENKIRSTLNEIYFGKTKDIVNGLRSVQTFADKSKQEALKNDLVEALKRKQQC
UniProt Q8N6N3: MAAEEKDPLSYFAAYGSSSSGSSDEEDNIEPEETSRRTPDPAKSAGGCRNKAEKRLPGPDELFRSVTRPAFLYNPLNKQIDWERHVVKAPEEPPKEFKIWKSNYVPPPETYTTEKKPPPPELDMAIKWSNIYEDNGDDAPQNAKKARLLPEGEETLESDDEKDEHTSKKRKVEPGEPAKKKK

What was measured:
Assay in all cases: log2 fold change, soluble protein after heating vs DMSO (PISA); higher = thermal stabilisation; K562 lysate, 10 uM; active = over 0.2 and 3.5 SD of the protein, either way, in both replicates (recomputed)
alvocidib = compound: CN1CC[C@H](c2c(O)cc(O)c3c(=O)cc(-c4ccccc4Cl)oc23)[C@H](O)C1 [alvocidib]
In short: (§1)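 Quantification was by TMTpro 16plex LC-MS/MS with equalised channel sums, applied to the supernatant after 21,000xg for 90 min. Samples were crude K562 extract at 1 mg/mL protein in PBS pH 7.4 with 1 mM MgCl2, treated with 10 μM compound for 30 min, heated for 3 min across 48°C-58°C, pooled and brought to 0.5% NP-40 at 4°C. Values are log-two fold changes in thermal stability relative to solvent controls, from duplicates.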

Tubastatin A = compound: CN1CCc2c(c3ccccc3n2Cc2ccc(C(=O)NO)cc2)C1 [Tubastatin A]
In short: as §1

[1] = compound: CNC(=O)C1=CC=CC=C1NC2=NC(=NC=C2Cl)NC3=C(C=C(C=C3)N4CCOCC4)OC
In short: as §1

defactinib = compound: CNC(=O)c1ccc(Nc2ncc(C(F)(F)F)c(NCc3nccnc3N(C)S(C)(=O)=O)n2)cc1 [defactinib]
In short: as §1

[2] = compound: CNc1nc(-c2ccc3c(N)n[nH]c3c2)cc(N2C[C@@H](C(=O)NC3CCCCC3)CC[C@H]2C)n1
In short: as §1

encorafenib = compound: COC(=O)N[C@@H](C)CNc1nccc(-c2cn(C(C)C)nc2-c2cc(Cl)cc(NS(C)(=O)=O)c2F)n1 [encorafenib]
In short: as §1

[3] = compound: COC(=O)[C@H](CCSC)NC(=O)C1=C(C=C(C=C1)NC[C@H](CS)N)C2=CC=CC=C2
In short: as §1

alisertib = compound: COc1cc(Nc2ncc3c(n2)-c2ccc(Cl)cc2C(c2c(F)cccc2OC)=NC3)ccc1C(=O)O [alisertib]
In short: as §1

[4] = compound: COc1cc2nc(-c3cc(F)ccc3O)nc(N[C@@H]3CNC[C@H]3C(C)(C)O)c2cc1OC
In short: as §1

gefitinib = compound: COc1cc2ncnc(Nc3ccc(F)c(Cl)c3)c2cc1OCCCN1CCOCC1 [gefitinib]
In short: as §1

lapatinib = compound: CS(=O)(=O)CCNCc1ccc(-c2ccc3ncnc(Nc4ccc(OCc5cccc(F)c5)c(Cl)c4)c3c2)o1 [lapatinib]
In short: as §1

pictilisib = compound: CS(=O)(=O)N1CCN(Cc2cc3nc(-c4cccc5[nH]ncc45)nc(N4CCOCC4)c3s2)CC1 [pictilisib]
In short: as §1

crizotinib = compound: C[C@@H](Oc1cc(-c2cnn(C3CCNCC3)c2)cnc1N)c1c(Cl)ccc(F)c1Cl [crizotinib]
In short: as §1

[5] = compound: C[C@H](C1=CC=C(C=C1)C(=O)NC2=C3C=CNC3=NC=C2)N
In short: as §1

duvelisib = compound: C[C@H](Nc1ncnc2nc[nH]c12)c1cc2cccc(Cl)c2c(=O)n1-c1ccccc1 [duvelisib]
In short: as §1

gandotinib = compound: Cc1cc(Nc2cc(CN3CCOCC3)c3nc(C)c(Cc4ccc(Cl)cc4F)n3n2)n[nH]1 [gandotinib]
In short: as §1

tozasertib = compound: Cc1cc(Nc2cc(N3CCN(C)CC3)nc(Sc3ccc(NC(=O)C4CC4)cc3)n2)n[nH]1 [tozasertib]
In short: as §1

doramapimod = compound: Cc1ccc(-n2nc(C(C)(C)C)cc2NC(=O)Nc2ccc(OCCN3CCOCC3)c3ccccc23)cc1 [doramapimod]
In short: as §1

bafetinib = compound: Cc1ccc(NC(=O)c2ccc(CN3CC[C@H](N(C)C)C3)c(C(F)(F)F)c2)cc1Nc1nccc(-c2cncnc2)n1 [bafetinib]
In short: as §1

[6] = compound: Cc1cccc(CC(=O)N2CCc3c2ccc(-c2cn(C)c4ncnc(N)c24)c3F)n1
In short: as §1

Measured: log2 fold change

C4orf33 (UniProt Q8N1A6)
inactive: alvocidib -0.025 | Tubastatin A 0.006 | [1] 0.011 | defactinib 0.043 | [2] 0 | encorafenib 0.028 | [3] -0.053 | alisertib -0.071 | [4] 0 | gefitinib -0.014 | lapatinib -0.005 | pictilisib 0.005 | crizotinib -0.047 | [5] -0.133 | duvelisib 0.033 | gandotinib 0.06 | tozasertib 0.074 | doramapimod 0.02 | bafetinib -0.067 | [6] 0.121

C15orf41 (UniProt Q9Y2V0)
inactive: alvocidib -0.002 | Tubastatin A -0.036 | [1] 0.039 | defactinib -0.13 | [2] 0.002 | encorafenib 0.126 | [3] -0.043 | alisertib 0.023 | [4] 0.09 | gefitinib 0.006 | lapatinib -0.078 | pictilisib 0.007 | crizotinib -0.033 | [5] 0.03 | duvelisib 0.059 | gandotinib 0.002 | tozasertib 0.102 | doramapimod -0.035 | bafetinib 0.009 | [6] -0.017

C8orf82 (UniProt Q6P1X6)
inactive: alvocidib -0.011 | Tubastatin A 0.08 | [1] 0.026 | defactinib -0.013 | [2] 0.095 | encorafenib -0.004 | [3] -0.119 | alisertib -0.09 | [4] 0.018 | gefitinib 0.07 | lapatinib 0.022 | pictilisib -0.022 | crizotinib -0.035 | [5] -0.017 | duvelisib 0.029 | gandotinib 0 | tozasertib -0.016 | doramapimod 0.045 | bafetinib 0.041 | [6] 0.024

C1orf122 (UniProt Q6ZSJ8)
inactive: alvocidib 0.023 | Tubastatin A 0.017 | [1] 0.034 | defactinib 0.089 | [2] 0.062 | encorafenib 0.115 | [3] -0.028 | alisertib -0.033 | [4] -0.02 | gefitinib 0.004 | lapatinib 0.049 | pictilisib -0.011 | crizotinib -0.104 | [5] -0.031 | duvelisib 0.025 | gandotinib 0.04 | tozasertib -0.013 | doramapimod 0.018 | bafetinib 0.042 | [6] -0.019

C2orf49 (UniProt Q9BVC5)
inactive: alvocidib 0.004 | Tubastatin A -0.02 | [1] 0.049 | defactinib 0 | [2] -0.091 | encorafenib -0.017 | [3] -0.112 | alisertib 0.012 | [4] -0.007 | gefitinib -0.04 | lapatinib 0.029 | pictilisib 0.043 | crizotinib 0.022 | [5] 0.001 | duvelisib 0.006 | gandotinib 0.008 | tozasertib 0.041 | doramapimod -0.029 | bafetinib -0.025 | [6] 0.01

C12orf29 (UniProt Q8N999)
inactive: alvocidib -0.047 | Tubastatin A -0.039 | [1] 0.011 | defactinib -0.016 | [2] 0.034 | encorafenib 0.042 | [3] 0.032 | alisertib -0.02 | [4] -0.023 | gefitinib 0.065 | lapatinib -0.054 | pictilisib 0.033 | crizotinib -0.057 | [5] -0.062 | duvelisib -0.002 | gandotinib 0.031 | tozasertib 0.02 | doramapimod 0.015 | bafetinib -0.154 | [6] 0.173

CAPZB isoform 2 (UniProt P47756)
inactive: alvocidib -0.03 | Tubastatin A -0.005 | [1] -0.075 | defactinib -0.057 | [2] -0.027 | encorafenib -0.045 | [3] 0.011 | alisertib -0.061 | [4] 0.028 | gefitinib 0.119 | lapatinib 0.021 | pictilisib 0.051 | crizotinib 0.023 | [5] -0.032 | duvelisib 0.06 | gandotinib 0.011 | tozasertib -0.001 | doramapimod -0.027 | bafetinib 0.115 | [6] 0.017

C1orf52 (UniProt Q8N6N3)
inactive: alvocidib -0.008 | Tubastatin A 0.025 | [1] 0 | defactinib 0.002 | [2] 0.037 | encorafenib -0.006 | [3] -0.034 | alisertib -0.027 | [4] 0.01 | gefitinib -0.02 | lapatinib -0.003 | pictilisib 0.04 | crizotinib 0.035 | [5] -0.043 | duvelisib 0.009 | gandotinib 0.114 | tozasertib -0.034 | doramapimod -0.04 | bafetinib -0.019 | [6] 0
